The other results are listed elsewhere or left out. The main result of the screen is listed elsewhere. These columns were measured beside it and carry no call. Most of these compounds were active or inconclusive in the main read-out, so they are no random draw.
Assay: insulin gene promoter suppression in islet cells – imaging, TRM-6 cells (human fetal islet line), eGFP reporter, cell count, primary screen (AID 1273;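 also: cells exposed to compound for 48 h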)
Details: measured here: cell count, toxicity, at 2 µM, reporter expression induced with tamoxifen

Structure (SMILES) | normalized cell count [%]
Cn1c(=O)cc(SCC(=O)NCC2CCCO2)c2ccc(Cl)cc21 (stereo unspecified) | 105
Cc1cc2[nH]c(=O)c3ccccc3n2n1 | 97.9
Nc1nc2c(c(=O)[nH]1)C(c1cccc3ccccc13)C1=C(N2)c2ccccc2C1=O (stereo unspecified) | 83.8
O=C(O)c1cc(-c2ccco2)nc2ccc(Br)cc12 | 154
CC1CCCC(C)N1/N=C/c1ccccc1C(=O)O (stereo unspecified) | 176
COc1ccc2c(c1)-c1nc(/N=C/c3ccc(O)cc3)sc1CC2 | 144
CCOC(=O)c1sc2nc(C)nc(Nc3ccc(OC)cc3)c2c1C | 101
Cc1ccc(O)c(CC(C)C)n1 | 142
O=C(NNC(=O)c1ccc(F)cc1F)c1ccc2c(c1)OCO2 | 115
CCCCn1c(N(CCOC(C)=O)C(C)=O)nc2ccccc21 | 34.6
O=Cc1c(-c2ccc(F)cc2)nc2ccccn12 | 157
Cc1cccc(OCCNC(=S)NC(=O)c2cccnc2)c1 | 104
Cc1ccc(C(C(=O)NCC2CCCO2)N(Cc2ccccc2)C(=O)c2ccc(-c3ccccc3)[nH]2)o1 (stereo unspecified) | 199
COc1ccc(C(=O)Nc2cccc(C(=O)NCc3ccco3)c2)cc1 | 105
CC(C)c1ccc(CN2CC(C(=O)Nc3ccccc3)CC2=O)cc1 (stereo unspecified) | 37.2
Cc1cc(N=Nc2ccccc2)c(NCC(O)C(O)C(O)CO)cc1C (stereo unspecified) | 104
O=c1c(C(c2ccccc2)c2c(O)sc3ccccc3c2=O)c(O)sc2ccccc12 | 85.5
CCC(C)(NC(=O)CNC(C)=O)C(=O)NC1CCCCC1 (stereo unspecified) | 37.6
CC(=O)Nc1ccc(S(=O)(=O)Nc2nccc(/C=C/c3ccc(Cl)cc3)n2)cc1 | 131
Cc1onc(-c2c(F)cccc2Cl)c1C(=O)OCn1nnc2ccccc2c1=O | 99.6
COC(=O)c1ccccc1NC(=O)C1CC(=O)N(c2ccc(F)cc2)C1 (stereo unspecified) | 66.7
CCOc1ccc(C(CC(=O)O)NC(=O)COc2ccccc2)cc1OC (stereo unspecified) | 160
COc1ccc(-c2nc(C#N)c(N3CCC(C(N)=O)CC3)o2)cc1OC | 95.6
CC(C)CC(c1nnnn1CCc1ccccc1)N1CCC(C(N)=O)CC1 (stereo unspecified) | 41.1

Structure (SMILES) | normalized cell count [%]
Cc1cccc(NC(=S)NC(=O)C(c2ccccc2)c2ccccc2)n1 | 29.4
N#C/C(=C/c1ccc(N2CCOCC2)c([N+](=O)[O-])c1)C(N)=O | 88.8
COc1ccc(OC)c(N/C(C)=C/C(=O)c2ccc(C)o2)c1 | 84.8
Cc1cc(=O)[nH]c2c1c(C)nn2-c1ccccc1 | 79.8
c1ccc(CNc2nc(-c3cccs3)nc3ccccc23)nc1 | 113
Cc1cccc(Nc2nc(N)nc(CN3CCC(C)CC3)n2)c1C | 15.9
CCCCCn1nc(C)c(/C=N\NC(=O)c2cc(C)oc2C)c1C | 134
O=C(COC(=O)c1cnccn1)c1ccc2c(c1)CCCC2 | 126
Cc1ccc(S(=O)(=O)N2CCCC(C(=O)Nc3ccc(NC(=O)c4ccccn4)cc3)C2)cc1 (stereo unspecified) | 111
CCCn1nnc(NC(=O)COc2ccc(C3CCCCC3)cc2)n1 | 14.3
CCN(CC)c1nc2ccccc2[nH]1 | 234
COc1ccc(-c2c(C#N)c(C)nc3c2C(=O)c2ccccc2-3)cc1 | 80
O=C(NCCCN1CCN(c2ccccc2F)CC1)Nc1ccccc1[N+](=O)[O-] | 94.6
CCOc1ccc(/C=N/Nc2ccc(C(F)(F)F)cc2[N+](=O)[O-])cc1O | 123
COc1ccc(C(=O)C(CN2CCOCC2)c2ccccc2)cc1F (stereo unspecified) | 50.3
Cc1nn(C)c(C)c1NC(=O)c1ccnn1C | 67.6
Cn1nccc1C(=O)N1CCc2ccccc21 | 135
CC(=O)N(c1ccc(Cl)cc1)c1c[nH]c2ccccc12 | 162
CCOP(=O)(C1=C(O)C(=O)C(C(C)(C)C)=CC1=O)c1ccccc1 (stereo unspecified) | 103
COc1oc(-c2ccc(Cl)cc2)nc1C(F)(F)F | 103
CCCC(=O)Nc1nnc(SCC)s1 | 61.5
Cn1cnnc1SCCn1c(N2CCCCC2)nc2c1c(=O)[nH]c(=O)n2C | 93.8
CC1(C)OC(=O)C(=CNn2cnc3ccccc3c2=O)C(=O)O1 | 78.5
Cc1c(CNC(=O)c2cnn3c2NC(c2ccccc2)CC3C(F)(F)F)cnn1C (stereo unspecified) | 79.5

Structure (SMILES) | normalized cell count [%]
Cc1ccc(C(=O)c2cc3c(cc2N)OCCO3)cc1 | 99.7
Cc1cccc(-n2c(=O)[nH]c3c(C(N)=O)nc(CC(C)C)nc32)c1 | 51.7
O=C(COc1ccc(Br)cc1)N/N=C1\SCC(=O)N1c1ccc(F)cc1 | 109
COc1ccc(/C=C/C2=NN(C)C(=O)CC2)cc1 | 113
O=C(c1cc(Cl)cc(Cl)c1)N1CCOCC1 | 91.5
Cc1ccc(S(=O)(=O)NC(=O)c2ccc(-c3ccc(-c4ccccc4)cc3)o2)c(C)c1 | 80.3
CCOc1cc(S(=O)(=O)N2CCOCC2)ccc1F | 129
CCOC(=O)c1c(C)n(C(=O)c2ccco2)c(=O)n1C(=O)c1ccco1 | 142
CCc1ccc(NC(=O)C(C)OC(=O)c2cc(=O)[nH]c3ccc(S(=O)(=O)Nc4ccc(F)cc4)cc23)cc1 (stereo unspecified) | 117
CC(C)CNc1oc(-c2ccco2)nc1C#N | 76.2
CCOc1ccc(NC(=O)c2nn(-c3ccc(OC)cc3OC)c(=O)c3ccccc23)cc1 | 121
CCOC(=O)CSc1nc(C)c(C(C)=O)cc1C#N | 141
O=C(Nc1nnc(C2CC2)s1)c1ccc(Cl)c(S(=O)(=O)N2CCc3ccccc3C2)c1 | 121
CCSc1nc2ccccc2n1C(=O)Oc1ccccc1 | 110
COc1cccc(C(=O)N2CCOCC2)c1 | 81.8
Nc1cc2c(cc1C(=O)c1ccc(Cl)cc1)OCCO2 | 144
Cc1nccn1-c1ccc(C(F)(F)F)cc1[N+](=O)[O-] | 84.3
O=C1CCC/C1=C/Nc1ccc(Cl)cc1 | 90.2
CN(C)c1ccnc(SCc2ccccc2Cl)c1C#N | 101
CCC(CC)C(=O)OCC(=O)Nc1cc(OC)c([N+](=O)[O-])cc1C | 122
CCCc1nn(CCc2ccccn2)c(N)c1CC | 127
C[N+]1(CCC(=O)c2ccccc2)CCCCC1 | 62.5
CCC(C)N(CC(=O)Nc1cccc(C)c1C)C(=O)CCl (stereo unspecified) | 0.72
O=c1c2ccccc2ncn1Cc1ccc(Cl)cc1 | 162

5 of these compounds in a different format:
Structure (SMILES)	normalized cell count [%]
O=C(NNC(=O)c1ccc(F)cc1F)c1ccc2c(c1)OCO2	115
CCOc1ccc(/C=N/Nc2ccc(C(F)(F)F)cc2[N+](=O)[O-])cc1O	123
Cc1c(CNC(=O)c2cnn3c2NC(c2ccccc2)CC3C(F)(F)F)cnn1C (stereo unspecified)	79.5
CCC(CC)C(=O)OCC(=O)Nc1cc(OC)c([N+](=O)[O-])cc1C	122
CCCc1nn(CCc2ccccn2)c(N)c1CC	127

Continued.

Structure (SMILES) | normalized cell count [%]
CC(C)(C)c1nnc(NC(=O)CN2C(=O)C3C4C=CC(C4)C3C2=O)s1 (stereo unspecified) | 135
O=C(O)CCCC(=O)Nc1ccc(N=Nc2ccccc2)cc1 | 85.6
Cc1ccc(NC(=O)c2ccnc(C(C)(C)C)c2)cc1 | 95.2
COc1ccc(NC(=O)N2CCN(c3cccc(C(F)(F)F)c3)CC2)cc1 | 18.6
Cc1c(-c2cc[n+]([O-])cc2)oc2ccc(Br)cc2c1=O | 83.3
CC(C)Nc1ncnc2ccc(Br)cc12 | 73.7
COC(=O)c1c(-c2ccc(OC)c(OC)c2)csc1N | 126
Cc1cc(NC(=O)COc2ccc(N(C)S(=O)(=O)c3ccccc3)cc2)no1 | 79.1
CCOc1ccc(NC(=O)CCn2cccc2)cc1 | 97.8
COc1ccc(-c2nnc(SCc3ccccc3F)o2)cc1 | 61.1
O=C(CNc1ccc(Oc2ccccc2)cc1)N1CCOCC1 | 111
CCc1cc2c(=O)[nH]c(N3CCOCC3)nc2s1 | 123
Cc1ccc(S(=O)(=O)N2C(=O)C(C)SC2=Nc2ccccc2)cc1 (stereo unspecified) | 95.3
CSc1nc(-c2ccc(Cl)cc2Cl)[nH]c(=O)c1C#N | 74.6
Cc1cccc(C)c1NC(=O)COC(=O)COc1ccc2c(C)cc(=O)oc2c1 | 123
COc1ccc2cc(C#N)c(NC(C)C)nc2c1 | 136
NC(=O)CSC1=Nc2ccccc2C2=NC(c3ccccc3)C(=O)N12 (stereo unspecified) | 127
CCN(CC)Cc1c(O)ccc2c([N+](=O)[O-])c(C)n(-c3ccc(OC)cc3)c12 | 127
O=C(CN1CCN(CC(=O)Nc2ccccc2C(F)(F)F)CC1)Nc1ccccc1F | 117
O=c1oc2ccccc2c(Nc2ccc3ccccc3c2)c1[N+](=O)[O-] | 90.4
OC1C2(Cc3ccccc3)CN3CCN(C2)CC1(Cc1ccccc1)C3 (stereo unspecified) | 56.3
O=C(Cn1c(=O)oc2ccccc21)c1ccccc1 | 52.5
COC(=O)c1ccc(C2C(C#N)=C(N)Oc3cc(C)n(C)c(=O)c32)cc1 (stereo unspecified) | 44.4
O=C(NC(Cc1c[nH]c2ccccc12)C(=O)O)/C(=C/c1ccc2c(c1)OCO2)NC(=O)c1ccccc1 (stereo unspecified) | 55.8

Structure (SMILES) | normalized cell count [%]
c1ccc(-c2nnc(CN3CCC4(CC3)OCCO4)o2)cc1 | 111
COC(=O)c1ccccc1N1C(=O)C2C(C1=O)[C@H]1C=C[C@@H]2C1 (stereo partly specified) | 77.6
COc1ccc(C)cc1S(=O)(=O)N1CCCC(C(=O)NCC2CCCO2)C1 (stereo unspecified) | 96.6
CCC(c1nc2ccccc2c(=O)n1CCN1CCOCC1)N1C(=O)c2ccccc2C1=O (stereo unspecified) | 34.9
c1ccc(OCCOCCSc2ncccn2)cc1 | 121
O=C(O)CCC(=O)Nc1ccc(C(=O)OC2CCCCC2)cc1 | 118
Cc1csc(=N)n1-c1ccc(Cl)cc1 | 94
c1csc(C2=NNC(=NC3CCCCC3)SC2)c1 | 48.1
CCN(CC)C(=O)C(=O)c1cccn1-c1ccccc1C#N | 30.4
Cc1cc(C)c(S(C)(=O)=O)c(N(C)N)n1 | 67.3
C=CCn1c2ccccc2n2nc(C)c(=O)nc12 | 84.8
CCCCc1nnc(NC(=O)C2CCCO2)s1 (stereo unspecified) | 117
CCOC(=O)c1cc(=O)n2nc(-c3ccccc3F)nc2s1 | 82.1
CCn1c(O)c(/C=N/N=C/c2ccccc2)c2ccc(C3=NNC(=O)CC3)cc21 | 103
C=CCSc1nc(NC)c2sccc2n1 | 150
CN(CCc1ccccn1)c1ncnc2[nH]ncc12 | 78
CCOC(=O)c1[nH]c(C)c(C(=O)c2cc(F)ccc2F)c1C | 14.8
Cc1snc(S(=O)(=O)/C(C#N)=N/Nc2ccc(C(F)(F)F)cc2)c1C#N | 61.5
O=C(NCc1ccccc1Cl)C1CCN(C(=O)c2sccc2-n2cccc2)CC1 | 53.4
Cc1ccc(S(=O)(=O)n2c3ccc(Cl)cc3c3nc(C)sc32)cc1 | 154

Reference: PubChem BioAssay AID1273 (Columbia University Molecular Screening Center, 2008)
